From patent US4209442A (Richter Gedeon Vegyeszeti Gyar Rt., priority 1977, dated 1980)

Experiment: general procedure: solution-phase peptide synthesis; pentafluorophenyl active esters (OPFP)
Conditions: coupling step

| Substance | step yield |
| --- | --- |
| Z-OAlal-Arg(NO2)-Val-Tyr(Bzl)-Ile-His(Dnp)-Pro-Leu-ONP | 93% |
| Z-OGly-Arg(NO2)-Val-Tyr(Bzl)-Ile-His(Dnp)-Pro-Ala-ONB | 83% |
| Z-OGly-Arg(NO2)-Val-Tyr(Bzl)-Ile-His(Dnp)-Pro-Leu-ONB | 85% |
| Z-OGly-Arg(NO2)-Val-Tyr(Bzl)-Ile-His(Dnp)-Pro-Thr(Me)-OMe | 93% |

Same assay, conditions: late stage modification step

| Substance | step yield |
| --- | --- |
| (L-α-hydroxypropyl^1 -Leu^8)-angiotensin II | 70% |
| Z-OAla-Arg(NO2)-Val-Tyr(Bzl)-Ile-His-Pro-Leu-ONB | 92% |
